PubChem BioAssay AID1259405 | NCATS, 2018

Aim: 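Silenced genes that increase secreted GFP made by CHO cells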 (primary screen)
Cells: Chinese hamster CHO-K1 ovary cells with stable secreted eGFP expression
Reagents: single siRNA against mouse genes, 0.8 pmol siRNA per well (2 µl of 400 nM stock)
Timing: 3 days
Measurement: 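Percent of the per-plate non-targeting control median for intracellular GFP per well by laser scanning cytometry and for cell viability by ATP luminescence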
Direction: GFP, % of control: higher = more GFP per well, higher productivity; viability (ATP), % of control: higher = more viable cells (more ATP)
Active means: 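Called active when intracellular GFP, relative to negative control, is at or above 120%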
The deposit covers about 50,000 reagents; this is an unselected part. Of all reagents, about 4,000 (8%) were called active. 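Mouse siRNA library applied to hamster cells; one well for each siRNA.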 Entries without a mark were called inactive. Reagents against one gene are numbered here.

| gene symbol | reagent | GFP, % of control | viability (ATP), % of control |
| --- | --- | --- | --- |
| Kdelr3 | 1 | 93.5 | 99.2 |
| Kdelr3 | 2 | 78 | 55.5 |
| Ccl8 | 1 | 67.5 | 50.8 |
| Ccl8 | 2 | 38.5 | 46.2 |
| Ccl8 | 3 | 29.6 | 34.9 |
| Glipr1 | 1 | 53.4 | 61.8 |
| Glipr1 | 2 | 101 | 94.9 |
| Glipr1 | 3 | 79.4 | 76 |
| Gatd3a | 1 | 91.5 | 98.9 |
| Gatd3a | 2 | 75.6 | 70 |
| Gatd3a | 3 | 99.8 | 101 |
| Clcnka | 1 | 98.1 | 85.7 |
| Clcnka | 2 | 76.2 | 78 |
| Clcnka | 3 | 60.6 | 94 |
| Katnb1 | 1 | 50.7 | 64.3 |
| Katnb1 | 2 | 70 | 56 |
| Katnb1 | 3 | 70.1 | 85.1 |
| Cbx8 | 1 | 75.3 | 71.2 |
| Cbx8 | 2 | 71.4 | 81.5 |
| Cbx8 | 3 | 74.1 | 57.9 |
| Myf5 | 1 | 103 | 99.4 |
| Myf5 | 2 | 59.9 | 59.6 |
| Myf5 | 3 | 98 | 102 |
| Mmgt1 | 1 | 88.9 | 36.2 |
| Mmgt1 | 2 | 87.5 | 90 |
| Mmgt1 | 3 | 111 | 93.6 |
| Hinfp | 1 | 109 | 113 |
| Hinfp | 2 | 81.5 | 55.4 |
| Or8h7 | 1 | 83.5 | 50.8 |
| Or8h7 | 2 | 123 (active) | 96.5 |
| Or8h7 | 3 | 71.3 | 79.6 |
| Ftcd | 1 | 86.9 | 71.8 |
| Ftcd | 2 | 69.1 | 68.1 |
| Ftcd | 3 | 84.8 | 80 |

Laid out differently: 12 of the entries above.
{"gene symbol": "Ccl8", "reagent": 1, "GFP, % of control": 67.5, "viability (ATP), % of control": 50.8}
{"gene symbol": "Ccl8", "reagent": 2, "GFP, % of control": 38.5, "viability (ATP), % of control": 46.2}
{"gene symbol": "Ccl8", "reagent": 3, "GFP, % of control": 29.6, "viability (ATP), % of control": 34.9}
{"gene symbol": "Glipr1", "reagent": 1, "GFP, % of control": 53.4, "viability (ATP), % of control": 61.8}
{"gene symbol": "Glipr1", "reagent": 2, "GFP, % of control": 101, "viability (ATP), % of control": 94.9}
{"gene symbol": "Glipr1", "reagent": 3, "GFP, % of control": 79.4, "viability (ATP), % of control": 76}
{"gene symbol": "Gatd3a", "reagent": 1, "GFP, % of control": 91.5, "viability (ATP), % of control": 98.9}
{"gene symbol": "Gatd3a", "reagent": 2, "GFP, % of control": 75.6, "viability (ATP), % of control": 70}
{"gene symbol": "Gatd3a", "reagent": 3, "GFP, % of control": 99.8, "viability (ATP), % of control": 101}
{"gene symbol": "Clcnka", "reagent": 1, "GFP, % of control": 98.1, "viability (ATP), % of control": 85.7}
{"gene symbol": "Clcnka", "reagent": 2, "GFP, % of control": 76.2, "viability (ATP), % of control": 78}
{"gene symbol": "Clcnka", "reagent": 3, "GFP, % of control": 60.6, "viability (ATP), % of control": 94}

More records follow:
| gene symbol | reagent | GFP, % of control | viability (ATP), % of control |
| --- | --- | --- | --- |
| Rps6kc1 | 1 | 89.2 | 76.3 |
| Rps6kc1 | 2 | 85 | 58.1 |
| Rps6kc1 | 3 | 80 | 63.6 |
| Ndufs5 | 1 | 50.7 | 133 |
| Ndufs5 | 2 | 91.1 | 80.9 |
| Pcdhgb7 | 1 | 79.5 | 70.2 |
| Pcdhgb7 | 2 | 90.2 | 82.9 |
| Pcdhgb7 | 3 | 97.1 | 71.6 |
| Gsdmc3 | 1 | 71 | 61.9 |
| Gsdmc3 | 2 | 47.4 | 41.2 |
| Gsdmc3 | 3 | 95.9 | 87.2 |
| AU022252 | 1 | 89.4 | 63 |
| AU022252 | 2 | 117 | 110 |
| AU022252 | 3 | 78.3 | 72.2 |
| Hdac5 | 1 | 37.2 | 53.6 |
| Hdac5 | 2 | 102 | 76.5 |
| Hdac5 | 3 | 84.6 | 78.9 |
| Wnk4 | 1 | 61.3 | 72.1 |
| Pnoc | 1 | 97.2 | 76 |
| Pnoc | 2 | 58.8 | 93.9 |
| Pnoc | 3 | 93 | 91.6 |
| Plrg1 | 1 | 95.8 | 58.9 |
| Plrg1 | 2 | 82.6 | 47.7 |
| Plrg1 | 3 | 66.9 | 106 |
| Rexo5 | 1 | 121 (active) | 90.7 |
| Rexo5 | 2 | 90.9 | 65.8 |
| Rexo5 | 3 | 78.6 | 55.8 |
| Midn | 1 | 60 | 65.6 |
| Midn | 2 | 72.6 | 61.8 |
| Midn | 3 | 69.3 | 56.1 |
| Lrrc9 | 1 | 101 | 85.5 |
| Lrrc9 | 2 | 72.1 | 93.4 |
| Lrrc9 | 3 | 94.2 | 74.1 |
| Or51s1 | 1 | 33.1 | 42 |
| Or51s1 | 2 | 83.9 | 101 |
| Or51s1 | 3 | 62.2 | 61.6 |
| 1700029F12Rik | 1 | 156 (active) | 55.4 |
| 1700029F12Rik | 2 | 36.2 | 72 |
| 1700029F12Rik | 3 | 83.2 | 94.9 |
| Sod1 | 1 | 107 | 59.4 |
| Sod1 | 2 | 123 (active) | 75.5 |
| Sod1 | 3 | 100 | 70.4 |
| Ap4b1 | 1 | 83.4 | 104 |
| Ap4b1 | 2 | 63.8 | 79.4 |
| Champ1 | 1 | 74.4 | 48.6 |
| Champ1 | 2 | 102 | 114 |
| Champ1 | 3 | 33.6 | 27.4 |
| Cxcr2 | 1 | 117 | 99.4 |
| Cxcr2 | 2 | 79.1 | 80.3 |
| Cxcr2 | 3 | 55.1 | 50.4 |
